Library screen at single concentrations

Amino acid sequences for entries named in this document (tags omitted).
UniProt P9WNZ1, whole entry: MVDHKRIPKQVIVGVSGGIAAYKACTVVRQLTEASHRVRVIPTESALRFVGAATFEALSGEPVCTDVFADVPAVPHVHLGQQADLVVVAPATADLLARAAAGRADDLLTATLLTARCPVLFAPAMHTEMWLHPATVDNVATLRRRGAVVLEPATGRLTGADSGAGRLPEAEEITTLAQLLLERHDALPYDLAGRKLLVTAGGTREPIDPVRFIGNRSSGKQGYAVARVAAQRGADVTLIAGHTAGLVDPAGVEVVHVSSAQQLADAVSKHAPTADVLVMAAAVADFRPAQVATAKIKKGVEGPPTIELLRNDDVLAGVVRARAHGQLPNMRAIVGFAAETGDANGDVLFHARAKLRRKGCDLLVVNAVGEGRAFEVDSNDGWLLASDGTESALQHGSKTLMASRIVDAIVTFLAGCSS
UniProt P9WFT3, whole entry: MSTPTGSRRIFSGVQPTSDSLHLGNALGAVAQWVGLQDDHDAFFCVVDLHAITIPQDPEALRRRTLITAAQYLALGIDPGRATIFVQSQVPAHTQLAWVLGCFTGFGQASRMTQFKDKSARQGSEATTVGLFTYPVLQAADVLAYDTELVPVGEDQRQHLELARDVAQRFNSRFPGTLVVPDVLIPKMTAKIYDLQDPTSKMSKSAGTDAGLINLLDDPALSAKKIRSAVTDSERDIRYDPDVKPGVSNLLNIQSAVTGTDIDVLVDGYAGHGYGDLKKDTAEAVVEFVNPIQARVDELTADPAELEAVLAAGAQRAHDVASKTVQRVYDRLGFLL

The values are deposited in ChEMBL (CHEMBL3988442, “University of Dundee, Small-Polar-MMV Screening Library” (2021)).

CoaBC: 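Coenzyme A biosynthesis protein CoaBC, Mycobacterium tuberculosis (UniProt P9WNZ1). Enzyme assay of CoaBC with a phosphate dye (Biomol Green) read at 650 nm. Tested at 30 µM. Higher reads as stronger inhibition, judged from the few compounds that gave an IC50. Most strong results did not repeat in a second test. Size under these conditions: about 67,000 compounds, about 40 of them at 50% or above in at least one test.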
MtTrpRS: 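Tryptophan-tRNA ligase, Mycobacterium tuberculosis (UniProt P9WFT3). Enzyme assay of tryptophanyl-tRNA synthetase; the read-out is not stated. Compounds at 10 µM. Higher most likely means stronger inhibition; the record gives no direction and few retests gave an IC50. About 65,000 compounds were tested under these conditions; 0.098% (about 64) showed 50% or more at least once.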

Each number is a percent effect as filed.
How 0% and 100% were set is not recorded. Most values in the screen are low, and negative values occur.
This is an unselected part of the compounds tested.
Two or more numbers in one place are separate tests of the same structure; such repeats can differ widely.

Cc1nn(C)c(Cl)c1C1CCCN1CC(=O)N1CCCCC1 (centres unmarked) read CoaBC: -4.673%; MtTrpRS: -3.088%. For O=C(c1ccco1)N1C[C@H]2CCCN(Cc3ccncc3)[C@H]2C1 the result was CoaBC: -4.202%; MtTrpRS: -0.5231%. Result for O=S(=O)(c1ccccc1)N1CCC2(CCCN2CC2CCCC2)C1 (centres unmarked) was CoaBC: -3.599%; MtTrpRS: 0.2615%. COc1ccc(F)cc1C(C)NC(=O)NCCCn1cncn1 (centres unmarked) gave CoaBC: 2.727%; MtTrpRS: -4.413%.

c1cnnc(N2CCCC2CNCc2nc(-c3cccs3)no2)c1 (centres unmarked) gave CoaBC: 3.158%; MtTrpRS: -1.872%. Cc1cccc(Cn2ccc(NS(C)(=O)=O)n2)c1 read CoaBC: 6.364%; MtTrpRS: 5.054%. With COc1ccccc1-n1cc(C(=O)NCCCn2ccnn2)cn1 the screen gave CoaBC: -3.038%; MtTrpRS: -2.572%. Cn1cnnc1C1CCCN(C(=O)COCc2ccccc2)C1 (centres unmarked) read CoaBC: 2.91%; MtTrpRS: -7.486%.

For Cc1csc(C2CCCN(C(=O)c3cnc[nH]3)C2)n1 (centres unmarked) the result was CoaBC: 5.101%; MtTrpRS: 3.052%. Cn1ncnc1NCc1ccc(Cl)cc1 gave CoaBC: 9.912%; MtTrpRS: -0.4591%. With COC(=O)CN(C(=O)c1ccoc1)c1cccc(F)c1 the screen gave CoaBC: 8.663%; MtTrpRS: -0.4841%. Result for COC(=O)C(NC(=O)c1ccc(NC2CC2)nc1)c1ccccc1 (centres unmarked) was CoaBC: 4.365%; MtTrpRS: -7.751%.

With O=C(NCCCn1cncn1)c1ccc(-c2ccco2)[nH]c1=O the screen gave CoaBC: -3.194%; MtTrpRS: 1.923%. CN(C)S(=O)(=O)N1C[C@H]2C[C@H](C(=O)Nc3ccccc3)[C@@H](C1)O2 gave CoaBC: 1.253%; MtTrpRS: 2.628%. For Cc1c[nH]c(CN2CCOC(c3ccc(F)cc3)C2)c(C)c1=O (centres unmarked) the result was CoaBC: 6.813%; MtTrpRS: 0.3882%. With Cc1nc(C(=O)N2CCN(C(=O)C3CCC3)[C@@H]3CS(=O)(=O)C[C@@H]32)cs1 the screen gave CoaBC: -3.306%; MtTrpRS: -2.224%.

CCCn1ccnc1CN1C[C@@H](CN2CCCCC2)[C@@H](CO)C1 gave CoaBC: 14.11%; MtTrpRS: 0.3298%. COC(=O)c1cc2c(=O)n(C3CC3)ccc2nc1C read CoaBC: -3.03%; MtTrpRS: -1.611%. With Cc1nn(C)c2nc(-c3ccccn3)nc(NCCCOC(C)C)c12 the screen gave CoaBC: -1.613%; MtTrpRS: 0.457%. O=C(CCc1cccs1)N1CCc2[nH]nc(COc3ccccc3)c2C1 read CoaBC: 11.65%; MtTrpRS: 1.728%.

With Cc1ncc2c(c1CNC(=O)C1(c3ccc(F)cc3)CC1)CCNC2 the screen gave CoaBC: -10.26%; MtTrpRS: 2.7%. CC(C(=O)O)n1nc(C(F)(F)F)c(Cl)c1C1CC1 (centres unmarked) gave CoaBC: -6.085%; MtTrpRS: 2.007%. COCC(=O)N1CCCC1c1cccc(Nc2ncc(C)s2)n1 (centres unmarked) read CoaBC: 0.1236%; MtTrpRS: -4.863%. With O=C(COc1ccc(F)cc1)N1CCCSCC1CN1CCOCC1 (centres unmarked) the screen gave CoaBC: -4.017%; MtTrpRS: -2.964%.

Result for CC(C)=CCCC1(C)C=Cc2c(cc(C)n(CC(=O)O)c2=O)O1 (centres unmarked) was CoaBC: -3.155%; MtTrpRS: 2.185%. With Cc1cc(-c2cncnc2)ccc1OCC(N)=O the screen gave CoaBC: 8.436%; MtTrpRS: 7.344%. O=C(NC1CCCc2nc(N3CCOCC3)ncc21)C1CCCCC1 (centres unmarked) read CoaBC: -4.657%. Cc1ccsc1CCNC(=O)CCC(=O)NC1CCCC1 gave CoaBC: 2.195%; MtTrpRS: 7.98%.

Cc1oc(-c2cccs2)nc1C(=O)N1CCCC1Cn1cccn1 (centres unmarked) read CoaBC: 4.215%; MtTrpRS: -5.796%. For CNc1nc(C)c(C(=O)N2CCC(C(O)Cc3ccccc3)CC2)s1 (centres unmarked) the result was CoaBC: 6.173%; MtTrpRS: -6.265%. O=C(c1ccno1)N1CCOC[C@H](Oc2ccc(C(F)(F)F)cc2)C1 read CoaBC: 5.519%; MtTrpRS: -4.021%. Result for CS(=O)(=O)Cc1ccc(Cl)cc1NCc1cccc(F)c1F was CoaBC: -3.507%; MtTrpRS: -2.204%.

With NC(=O)CN1CCCC(C(=O)N2CCC(O)(c3ccccc3)CC2)C1 (centres unmarked) the screen gave CoaBC: 4.512%; MtTrpRS: 6.49%. CC(O)CC(C)(C)CNS(=O)(=O)c1cccc(Cl)c1C#N (centres unmarked) gave CoaBC: 4.073%; MtTrpRS: 3.469%. Cc1[nH]c2c(F)cccc2c1CC(=O)NCCCc1csc(N)n1 read CoaBC: 2.292%; MtTrpRS: 0.6522%. CCn1c2c(ccc1=O)CC(N)CC2 (centres unmarked) read CoaBC: 0.5089%; MtTrpRS: 37.59%.

With Cn1ccc(C(=O)N2CCOC(c3ccccn3)C2)cc1=O (centres unmarked) the screen gave CoaBC: 2.433%; MtTrpRS: 1.449%. Result for COc1ncccc1CNC(=O)NCCNS(C)(=O)=O was CoaBC: 1.567%; MtTrpRS: -5.9%. CN(C)CCN1CCO[C@@H]2CCN(C(=O)c3cccn3C)CC[C@H]21 gave CoaBC: -4.634%. O=C(NC1CCCC1)[C@@H]1CN(Cc2nccs2)C[C@H]2OCC[C@H]21 read CoaBC: 10.58% and 21.24%; MtTrpRS: 2.291%.

Cc1nc(CCCNC(=O)c2c(F)cc(F)cc2F)n[nH]1 read CoaBC: 7.282%; MtTrpRS: -0.288%. With COCCCC1(CO)CCCN(CCc2ccccn2)C1 (centres unmarked) the screen gave CoaBC: -1.333%; MtTrpRS: 1.077%.

For reference, 4 entries once more:

SMILES	CoaBC	MtTrpRS
CC(O)CC(C)(C)CNS(=O)(=O)c1cccc(Cl)c1C#N (centres unmarked)	4.073%	3.469%
COc1ccccc1-n1cc(C(=O)NCCCn2ccnn2)cn1	-3.038%	-2.572%
O=C(c1ccco1)N1C[C@H]2CCCN(Cc3ccncc3)[C@H]2C1	-4.202%	-0.5231%
O=C(COc1ccc(F)cc1)N1CCCSCC1CN1CCOCC1 (centres unmarked)	-4.017%	-2.964%